Assay results reported in publication PMC6939906, “Leucine zipper transcription factor-like 1 binds adaptor protein complex-1 and 2 and participates in trafficking of transferrin receptor 1” (PLoS ONE, 2020).

Molecular target: T1, MBP-LZTFL1 (maltose-binding protein fused with human LZTFL1) (human) (UniProt Q9NQ48)
T1 sequence: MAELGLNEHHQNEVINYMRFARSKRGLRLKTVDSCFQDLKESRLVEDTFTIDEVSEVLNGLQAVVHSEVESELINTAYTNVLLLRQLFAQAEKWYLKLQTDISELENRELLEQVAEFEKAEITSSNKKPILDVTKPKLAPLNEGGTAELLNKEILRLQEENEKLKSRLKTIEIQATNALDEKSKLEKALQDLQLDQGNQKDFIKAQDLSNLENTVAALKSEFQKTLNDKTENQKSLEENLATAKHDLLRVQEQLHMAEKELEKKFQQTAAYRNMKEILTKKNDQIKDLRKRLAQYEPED
Assay: pull-down; MBP-fused proteins held on amylose resin, purified GST-fused proteins added, overnight at 4°C; blots with anti-MBP and anti-GST; both purified

“GST-σ1 (GST-fused σ1 subunit of AP-1) (human)” was tested, and the binding was “no binding”.
In the case of “GST-μ1 (GST-fused μ1 subunit of AP-1) (human)”, the binding is reported as “no binding”.

Results are given in words; binding and its absence hold for the method and conditions named. Where a sequence is shown, tags or fusion partners need not be part of it.
